This data set is described as follows: general procedure: Fmoc solid-phase peptide synthesis in flow; resin with 4-hydroxymethylphenoxyacetate handle. The conditions noted are these: whole synthesis, scale of the general procedure 1.5 g of resin per column (two columns).

Regarding “Gln-Tyr-Ile-Lys-Ala-Asn-Ser-Lys-Phe-Ile-Gly-Ile-Thr-Glu (QYIKANSKFIGITE; printed: Gln-Tyr-Ile-Lys-Ala-Asn-Ser-Lys-Phe-Ile-Gly-Ile-Thr-Glu)”, the crude yield entry is recorded as “Yield 93%”.

These data come from patent publication EP0378881B1 ([…] S.p.A., priority 1989, dated 1993).
